Results are given in words; binding and its absence hold for the method and conditions named. Some entries that bind do so weakly or less than the wild type.

By UniProt entry, the sequences of proteins in these tests, tags left out.
UniProt P69066: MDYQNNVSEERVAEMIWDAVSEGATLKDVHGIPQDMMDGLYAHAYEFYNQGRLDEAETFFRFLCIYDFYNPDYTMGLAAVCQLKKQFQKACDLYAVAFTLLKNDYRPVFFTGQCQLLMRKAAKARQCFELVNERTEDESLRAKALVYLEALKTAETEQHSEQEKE

This passage reports binding results from paper PMC7595419.

Test [1] concerns the target T1, LexA_(DBDwt)-InvF (Salmonella Typhimurium) (UniProt P69343).
T1 sequence: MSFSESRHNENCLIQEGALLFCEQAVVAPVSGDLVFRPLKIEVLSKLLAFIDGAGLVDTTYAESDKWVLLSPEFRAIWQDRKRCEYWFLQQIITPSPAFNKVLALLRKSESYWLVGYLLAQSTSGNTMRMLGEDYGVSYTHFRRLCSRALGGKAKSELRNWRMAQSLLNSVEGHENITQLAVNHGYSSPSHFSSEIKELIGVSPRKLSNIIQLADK
Put plainly: two-hybrid; LexA-based bacterial two-hybrid, heterodimer system in E. coli SU202 (LexA_(DBDwt) fusion from pSR658 with LexA_(DBDmut) fusion from pSR659; interaction lowers β-galactosidase activity).

Test [2] addresses LexA_(DBDwt)-SicA (Salmonella Typhimurium) (UniProt P69066). Described as above.
Test [3] shares this target. In words: two-hybrid.

For the substance “LexA_(DBDmut)-SicA (from UniProt P69066 1-165)”, the binding entry in test [1] and in test [2] was “binds” in each case.

For “LexA_(DBDwt)-SicA (from UniProt P69066 1-165)”, the binding result in test [3] is “binds”.
